For at least one compound, name, drawing or mass did not settle the structure.
Key:
[1] = test system: mdx mice; test: Noninvasive whole body tension (WBT) measurement of forward pulling tensions; type: in vivo
Text: FIG. 18 presents individual “forward pulling tensions” (FPTs; upward deflections) recorded from a PDTC-treated mouse (Series 2) using the whole body tension (WBT) technique (Carlson and Makiejus, 1990). The rank order of FPTs from highest to lowest is indicated by the numbers in the figure. […] In the Series 2 experiments, WBT measurements were obtained from each of the saline-injected and PDTC-injected mice on days 0, 9, 21 and 40 of the experiment.
As a first step in examining the potential effects of PDTC treatment on WBT tension development, the slope of the decline in FPTs was evaluated for each recording session for each mouse examined in the Series 2 experiments (FIG. 19A, 19B). This measure essentially provides a “fatigue index” (FI) since the slope of the decline in FPTs is a direct measure of the average magnitude of the decline in FPT per individual pull for rank-ordered pulls number 2 through 10. If 10 individual pulls obtained during the recording session have identical magnitudes representing the highest FPT, then the FI equals 0. In contrast, a 50% reduction in FPT per pull would produce an FI equal to −0.5.
To examine the potential effect of PDTC treatment on FI in age matched adult mdx mice, a pre-treatment FU was obtained during a typical recording session from each of 10 mdx mice used in the Series 2 investigations (age 9.5 to 16 months at beginning of study). Five of the mice were subsequently treated with daily injections of vehicle (HEPES buffered Ringer's solution) and 5 of the mice were treated with daily injections of 50 mg/kg PDTC. Recordings for each of the mice were subsequently obtained on days 9, 21, and 40 of the treatment period (e.g., FIG. 19). To determine the potential effects of treatment on FI, the FIs obtained on days 9, 21, and 40 (e.g., FIG. 19) were each normalized to the pre-treatment FI for each of the 10 mice used in the study. […] A decrease in the FI indicating a reduction in the average loss of tension per pull during the course of the study would produce normalized FIs less than one, no change in FI would be associated with normalized FIs equal to 1.0, and increases in FI would produce normalized FIs greater than 1.0.
Mdx (C57 Bl10-mdx) and nondystrophic (C57Bl10-SnJ) mice were obtained from Jackson laboratories and bred under conditions approved by the Institutional Animal Care and Use Committee (IACUC). All studies were performed in accordance with the guidelines provided by the IACUC. Male and female PDTC treated mdx mice received daily intraperitoneal (ip) injections of 50 mg/kg pyrollidine dithiocarbamate (PDTC; Sigma P8765) dissolved in sterile-filtered (0.2 μm) HEPES-buffered Ringers solution (147.5 mM NaCl, 5 mM KCl, 2 mM CaCl2, 11 mM glucose, 5 mM Hepes, pH 7.35). Age- and gender-matched groups of vehicle-treated mice received corresponding injections of HEPES Ringers. See Carlson et al., 2005. The PDTC experiments were conducted on two series of mature adult mdx mice (9.5-16 month; 19-20 months) and on a series of young adult (1 month) mice. In each case, the mice in the experimental and vehicle-treated groups were matched according to age and gender with an equal number of males and females in each group. WBT tension measurements were obtained prior to initiating treatment and on multiple occasions following at least 3 weeks (20 days) of treatment. […]

[2] = test system: nuclear p65 activation; test: TransAM NF-κB ELISA of nuclear p65 activation in mdx costal diaphragm; type: in vivo; settings: long term UDCA treatment of young adult mdx mice
Method: Cytosolic and nuclear fractions were obtained from isolated costal diaphragm using techniques that were slightly modified from Kumar and Boriek (2003). The muscles were removed from vehicle and drug-treated euthanized mdx mice at the end of the treatment period, and were flash-frozen and stored at −80° C. for a period of 1 to 4 weeks. The muscles were then thawed and weighed before being homogenized on ice using a mortar and pestle in low salt lysis (LSL) buffer (1 mg muscle wet weight/18 μl solution; in mM: 10 HEPES, 10 KCl, 1.5 MgCl2, 0.1 EDTA, 0.1 EGTA, 1 dithiothreitol (DTT), 0.5 phenylmethylsulfonylfluoride (PMSF); 0.5 mg/ml benzamidine, 4.0 μl/ml protease inhibitor cocktail Sigma #8340 (PIC) to produce the following final concentrations—2.1 μg/ml leupeptin, 3.85 μg/ml aprotinin, 0.416 mM AEBSF (Sigma A8456), 16 μM bestatin, 6 μM pepstatin A, 5.6 μM E64; pH 7.9). […]
Horizontal dashed lines indicate average levels observed in nondystrophic, vehicle, and UDCA treated preparations as indicated. In each case, percent recovery is determined by dividing the mean improvement observed in the UDCA treated preparation (UDCA-vehicle) from the deficit observed in the vehicle-treated preparation (nondystrophic-vehicle mdx). […] For each plate, the absorbance for each sample was normalized to the average absorbance determined for the vehicle-treated preparations on that plate. […]

[3] = test system: phosphorylated Akt; settings: 1 mg/kg intraperitoneal daily, 21 days
[4] = long term UDCA treatment of young adult mdx mice

Row | SMILES | WBT determinations vs vehicle-treated ([1]; UDCA 40 mg/kg ip daily 30 days from 30 days of age (UDCA and TUDCA results combined), p<0.01) | influence on FR ([1]; UDCA 30 days) | influence on PDP ([1]; UDCA 30 days) | WBT5 [1, 4] | WBT10 [1, 4] | nuclear p65 activation [2] | reducing the proportion of phosphorylated Akt [3]
1 | C[C@H](CCC(=O)O)[C@H]1CC[C@H]2[C@@H]3[C@@H](O)C[C@@H]4C[C@H](O)CC[C@]4(C)[C@H]3CC[C@]12C [UDCA, ursodeoxycholic acid] | higher | no influence | no influence | increases | increases | reduces | 
2 | C[C@@H]1C[C@H]2[C@@H]3CCC4=CC(=O)C=C[C@]4(C)[C@@]3(F)[C@@H](O)C[C@]2(C)[C@@]1(O)C(=O)CO [dexamethasone] |  |  |  |  |  |  | ineffective

Source: patent US20100292306A1, “Compositions And Methods For The Treatment Of Muscular Dystrophy” (priority 2005, published 2010)
